The values that follow come from article PMC6863843.

What all share (assay): co-IP; HEK293T cells transfected with the indicated plasmids, 48 h; lysis in 20 mM Tris pH 7.4, 1.0% Triton X-100, 0.1% SDS, 150 mM NaCl, 10% glycerol; 1 μg antibody overnight at 4 °C, protein A-Sepharose; immunoblot; input 5%
A general note: Immunoblotting shows a protein as a band on a membrane.

The target of assay [1] is Shank3c (pEGFP-C1-mShank3 variant) (mouse).
Assay [2] deals with Shank3e (pEGFP-C1-mShank3 variant) (mouse).
Assay [3] deals with Shank3b (pEGFP-C1-mShank3 variant) (mouse).

These are yes or no findings as the source states them, for the method shown. Binding seen in cells or lysates may run through a third protein. For part of these data: Binding can be weak; no strength is given. Tags and fused reporters may be left off the sequences shown.

B1: HA-tagged human Slitrk2 wild type (pDisplay-HA-hSlitrk2) (protein, UniProt Q9H156 22-845)
chain: RKTAKDICKIRCLCEEKENVLNINCENKGFTTVSLLQPPQYRIYQLFLNGNLLTRLYPNEFVNYSNAVTLHLGNNGLQEIRTGAFSGLKTLKRLHLNNNKLEILREDTFLGLESLEYLQADYNYISAIEAGAFSKLNKLKVLILNDNLLLSLPSNVFRFVLLTHLDLRGNRLKVMPFAGVLEHIGGIMEIQLEENPWNCTCDLLPLKAWLDTITVFVGEIVCETPFRLHGKDVTQLTRQDLCPRKSASDSSQRGSHADTHVQRLSPTMNPALNPTRAPKASRPPKMRNRPTPRVTVSKDRQSFGPIMVYQTKSPVPLTCPSSCVCTSQSSDNGLNVNCQERKFTNISDLQPKPTSPKKLYLTGNYLQTVYKNDLLEYSSLDLLHLGNNRIAVIQEGAFTNLTSLRRLYLNGNYLEVLYPSMFDGLQSLQYLYLEYNVIKEIKPLTFDALINLQLLFLNNNLLRSLPDNIFGGTALTRLNLRNNHFSHLPVKGVLDQLPAFIQIDLQENPWDCTCDIMGLKDWTEHANSPVIINEVTCESPAKHAGEILKFLGREAICPDSPNLSDGTVLSMNHNTDTPRSLSVSPSSYPELHTEVPLSVLILGLLVVFILSVCFGAGLFVFVLKRRKGVPSVPRNTNNLDVSSFQLQYGSYNTETHDKTDGHVYNYIPPPVGQMCQNPIYMQKEGDPVAYYRNLQEFSYSNLEEKKEEPATPAYTISATELLEKQATPREPELLYQNIAERVKELPSAGLVHYNFCTLPKRQFAPSYESRRQNQDRINKTVLYGTPRKCFVGQSKPNHPLLQAKPQSEPDYLEVLEKQTAISQL
In the case of B1, the binding entry in assay [1] is on record as “binds”; in assay [2] it was “no binding”; in assay [3] it was “binds”.
